From US20220354847A1, “THIAMINE THERAPY FOR FATTY LIVER ASSOCIATED DISEASES” (priority 2019, published 2022)

System: lambs grown on the HC diet
Conditions: THC group; HC 5.16, LC 3.50

Cc1ncc(C[n+]2csc(CCO)c2C)c(N)n1 [thiamine]
group mean of daily energy intake (metabolizable energy): 5.29 mcal
